Experimental data taken from the supplement of paper PMC10727501.
The list shows a part of the results. Repeats in this data set agree poorly, so a single value says little.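 Free-swimming zebrafish larvae were scored for O-bend response probability to dark flashes (naive: first five; training: remaining flashes of four 60-flash blocks; test: later 60-flash block) and for turning toward alternating leftward/rightward LED motion (OMR). Six treated larvae were compared with sixty 0.1% DMSO controls; |SSMD|≥2 defined a hit.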

Tests used:
Details in all cases: 10 µM; pre-incubation: 30-90 min
[1] = system: Danio rerio larvae (5 dpf, TLF); assay: OMR-Perf (SSMD vs DMSO vehicle); higher = higher than vehicle (e.g. higher dark-flash O-bend response probability, or better optomotor performance)
[2] = system: Danio rerio larvae (5 dpf, TLF); assay: Prob-Test (SSMD vs DMSO vehicle); higher = higher than vehicle (e.g. higher dark-flash O-bend response probability, or better optomotor performance)
[3] = system: Danio rerio larvae (5 dpf, TLF); assay: Prob-Naive (SSMD vs DMSO vehicle); higher = higher than vehicle (e.g. higher dark-flash O-bend response probability, or better optomotor performance)
[4] = system: Danio rerio larvae (5 dpf, TLF); assay: Prob-Train (SSMD vs DMSO vehicle); higher = higher than vehicle (e.g. higher dark-flash O-bend response probability, or better optomotor performance)

Compound	OMR-Perf [1]	Prob-Test [2]	Prob-Naive [3]	Prob-Train [4]
COc1ccc2c(c1)c(C1=C(c3c[nH]c4ccccc34)C(=O)NC1=O)cn2CCCN(C)C	-0.117	0.176	-0.467	0.15
CCC(=O)NCC[C@@H]1CCc2ccc3c(c21)CCO3 [Ramelteon]	-0.567	-1.62	-1.4	-2.17
CC1(C)[C@@H](C(=O)[O-])N2C(=O)C[C@H]2S1(=O)=O.[Na+] [Sulbactam sodium]	0.169	-0.164	-0.55	-0.633
COc1ccc(S(=O)(=O)Nc2cccnc2Nc2ccc(O)cc2)cc1	-0.239	-0.124	0.515	-0.219
CNC(=O)c1ccccc1Sc1ccc2c(/C=C/c3ccccn3)n[nH]c2c1 [Axitinib]	-0.16	-0.325	-0.34	-0.446
Nc1nccs1 [Aminothiazole]	0.312	0.0116	0.506	-0.118
Cl.O=C(OCC(O)CO)c1ccccc1Nc1ccnc2cc(Cl)ccc12 (stereo not drawn) [Glafenine HCl]	-0.416	-1.12	-0.333	-0.915
CC[C@@H]1C(=O)OC[C@@H]1Cc1cncn1C.Cl [Pilocarpine HCl]	0.583	-0.216	0.448	-0.371
COCCCOc1cc(C[C@@H](C[C@H](N)[C@@H](O)C[C@H](C(=O)NCC(C)(C)C(N)=O)C(C)C)C(C)C)ccc1OC.COCCCOc1cc(C[C@@H](C[C@H](N)[C@@H](O)C[C@H](C(=O)NCC(C)(C)C(N)=O)C(C)C)C(C)C)ccc1OC.O=C(O)/C=C/C(=O)O [Aliskiren Hemifumarate]	-0.203	-0.364	-0.0555	0.282
C[C@@H]1C[C@H]2[C@@H]3C[C@H](F)C4=CC(=O)C=C[C@]4(C)[C@]3(F)[C@H](O)C[C@]2(C)[C@@]1(O)C(=O)CO [Flumethasone]	0.264	-0.153	-0.42	-0.505
CCC(=O)O[C@@]1(C(=O)CCl)[C@@H](C)C[C@H]2[C@@H]3C[C@H](F)C4=CC(=O)C=C[C@]4(C)[C@]3(F)[C@H](O)C[C@@]21C [Halobetasol Propionate]	0.726	-0.67	-0.382	-0.653
O=C(/C=C/c1ccc(O)c(O)c1)OCCc1ccccc1 [Caffeic Acid Phenethyl Ester]	0.0694	0.0901	0.297	-0.393
O=C(O)c1ccc(NC(=O)[C@H](Cc2ccc(O)cc2)NC(=O)c2ccccc2)cc1 [Bentiromide]	0.115	0.307	0.444	0.385
NC(=O)CC[C@H](N)C(=O)O [L-Glutamine]	-0.139	-0.762	-0.142	-0.333
O=C(O)c1cccnc1Nc1cccc(C(F)(F)F)c1 [Niflumic acid]	-0.963	-1.54	-0.227	-1.79
Cc1cc(C)cc(NC(=O)Cc2ccc(OC(C)(C)C(=O)[O-])cc2)c1.[Na+] [Efaproxiral Sodium]	0.19	-0.0331	-0.252	0.139
Cn1c(=O)c(F)c(Nc2ccc(I)cc2F)c2c(=O)n(C[C@@H](O)CO)cnc21	-0.827	-1.87	0.515	-1.82
N#Cc1ccc(C(c2ccc(C#N)cc2)n2cncn2)cc1 [Letrozole]	1.26	0.52	0.0184	0.269
CN(C)C1CCN(C(=O)c2ccc(NC(=O)Nc3ccc(-c4nc(N5CCOCC5)nc(N5CCOCC5)n4)cc3)cc2)CC1	0.545	0.236	-0.485	-0.096
CC[C@H]1OC(=O)[C@H](C)[C@H](O[C@@H]2C[C@@](C)(OC)[C@@H](O)[C@H](C)O2)[C@H](C)[C@@H](O[C@@H]2O[C@H](C)C[C@H](N(C)C)[C@@H]2O)[C@](C)(OC)C[C@@H](C)C(=O)[C@H](C)[C@@H](O)[C@]1(C)O [Clarithromycin]	0.0322	-0.233	-0.471	0.124
CCNC(=O)[C@H]1O[C@@H](n2cnc3c(N)nc(NCCc4ccc(CCC(=O)O)cc4)nc32)[C@@H](O)[C@@H]1O.Cl	-0.102	0.0319	0.0613	-0.181
COc1cc2ncnc(Sc3nnc(C)s3)c2cc1OC	-0.273	1.2	-0.254	1.6

Among those listed so far, these contain an aryl methoxy group.
Compound	OMR-Perf [1]	Prob-Test [2]	Prob-Naive [3]	Prob-Train [4]
COc1ccc2c(c1)c(C1=C(c3c[nH]c4ccccc34)C(=O)NC1=O)cn2CCCN(C)C	-0.117	0.176	-0.467	0.15
COc1ccc(S(=O)(=O)Nc2cccnc2Nc2ccc(O)cc2)cc1	-0.239	-0.124	0.515	-0.219
COCCCOc1cc(C[C@@H](C[C@H](N)[C@@H](O)C[C@H](C(=O)NCC(C)(C)C(N)=O)C(C)C)C(C)C)ccc1OC.COCCCOc1cc(C[C@@H](C[C@H](N)[C@@H](O)C[C@H](C(=O)NCC(C)(C)C(N)=O)C(C)C)C(C)C)ccc1OC.O=C(O)/C=C/C(=O)O [Aliskiren Hemifumarate]	-0.203	-0.364	-0.0555	0.282
COc1cc2ncnc(Sc3nnc(C)s3)c2cc1OC	-0.273	1.2	-0.254	1.6
